PubChem BioAssay AID1224828 – NIAID, 2016

Purpose: 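Knock-downs that increase or decrease LPS-induced p65 nuclear translocation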 (primary screen)
Cell system: mouse RAW264.7 G9 macrophage reporter cells (GFP-p65, Tnf promoter-mCherry)
Reagent: siRNA pool against mouse genes, 100 nM
Time to read-out: 2 days siRNA transfection, then 40 min LPS before fixation
Challenge: LPS (Salmonella minnesota R595) at 10 ng/ml
Measured: 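Microscopy ratio of nuclear to perinuclear-ring GFP-p65 signal, scaled to the plate median; gene score is the average of two replicate robust z-scores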
Reading the numbers: p65 translocation robust z-score: higher = more nuclear NF-kappaB p65 after LPS than the plate median; nuclear/cytoplasmic p65 ratio: higher = more nuclear NF-kappaB p65
Active means: 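Active if robust z is above 3.3 (negative regulators) or below -1.56, the Tlr4 control median (positive regulators); activity score 50 or more; control wells not called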
Meaning of the calls: active = hit (p65 shift raised or lowered); inactive = no clear change
The deposit covers about 17,000 reagents; this is an unselected part. Of all reagents, 762 (4.5%) are marked active. 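Active calls include both raised and lowered p65 entry, mostly lowered; wells with fewer than 50 cells lack a z-score.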 The raw values are shown without normalisation. A number with no mark means an inactive call.

Atp2b3
- nuclear/cytoplasmic p65 ratio, rep 1: 1.4
- nuclear/cytoplasmic p65 ratio, rep 2: 1.47
- low cell count flag: fewer than 50 cells per well; well left out of scoring

Or1o1
- p65 translocation robust z-score: -0.89
- nuclear/cytoplasmic p65 ratio, rep 1: 1.45
- nuclear/cytoplasmic p65 ratio, rep 2: 1.51
- low cell count flag: enough cells to score

Defb40
- p65 translocation robust z-score: -0.5
- nuclear/cytoplasmic p65 ratio, rep 1: 1.5
- nuclear/cytoplasmic p65 ratio, rep 2: 1.47
- low cell count flag: enough cells to score

Psenen
- p65 translocation robust z-score: 0.85
- nuclear/cytoplasmic p65 ratio, rep 1: 1.54
- nuclear/cytoplasmic p65 ratio, rep 2: 1.5
- low cell count flag: enough cells to score

4932407I05
- nuclear/cytoplasmic p65 ratio, rep 1: 1.24
- nuclear/cytoplasmic p65 ratio, rep 2: 1.33
- low cell count flag: fewer than 50 cells per well; well left out of scoring

Cacng1
- p65 translocation robust z-score: 0.74
- nuclear/cytoplasmic p65 ratio, rep 1: 1.7
- nuclear/cytoplasmic p65 ratio, rep 2: 1.91
- low cell count flag: enough cells to score

Slc23a2
- p65 translocation robust z-score: 2.01
- nuclear/cytoplasmic p65 ratio, rep 1: 1.62
- nuclear/cytoplasmic p65 ratio, rep 2: 1.53
- low cell count flag: enough cells to score

Vps4a
- p65 translocation robust z-score: -0.56
- nuclear/cytoplasmic p65 ratio, rep 1: 1.33
- nuclear/cytoplasmic p65 ratio, rep 2: 1.16
- low cell count flag: enough cells to score

Sipa1l1
- p65 translocation robust z-score: 0.29
- nuclear/cytoplasmic p65 ratio, rep 1: 1.4
- nuclear/cytoplasmic p65 ratio, rep 2: 1.33
- low cell count flag: enough cells to score

Ccne1
- p65 translocation robust z-score: 0.16
- nuclear/cytoplasmic p65 ratio, rep 1: 1.49
- nuclear/cytoplasmic p65 ratio, rep 2: 1.4
- low cell count flag: enough cells to score

Adissp
- nuclear/cytoplasmic p65 ratio, rep 1: 1.3
- nuclear/cytoplasmic p65 ratio, rep 2: 1.22
- low cell count flag: fewer than 50 cells per well; well left out of scoring

Or4d5
- p65 translocation robust z-score: 1.83
- nuclear/cytoplasmic p65 ratio, rep 1: 1.69
- nuclear/cytoplasmic p65 ratio, rep 2: 1.46
- low cell count flag: enough cells to score

Just “nuclear/cytoplasmic p65 ratio, rep 1”, for 2 of the entries above:
Adissp	1.3
Or4d5	1.69
